The other results are listed elsewhere or left out.
Molecular target: T1, OsSMF1 (Oryza sativa, UniProt Q6ZLB0 1-436)
T1 sequence: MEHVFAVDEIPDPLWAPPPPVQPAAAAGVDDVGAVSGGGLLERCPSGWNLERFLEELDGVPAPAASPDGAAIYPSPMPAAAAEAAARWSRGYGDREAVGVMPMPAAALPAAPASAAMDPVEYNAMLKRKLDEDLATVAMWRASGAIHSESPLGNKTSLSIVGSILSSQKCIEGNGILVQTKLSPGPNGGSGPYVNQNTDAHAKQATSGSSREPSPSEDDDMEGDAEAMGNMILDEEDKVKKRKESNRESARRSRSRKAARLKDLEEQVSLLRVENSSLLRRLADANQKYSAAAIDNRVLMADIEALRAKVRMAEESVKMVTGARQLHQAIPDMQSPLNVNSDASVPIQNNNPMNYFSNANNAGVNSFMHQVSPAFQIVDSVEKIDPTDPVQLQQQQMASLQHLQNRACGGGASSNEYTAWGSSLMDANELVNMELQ
Experiment: protein-binding microarray (RPBM); PBS, 2% BSA, 51.3 ng/ul salmon testes DNA, 50 uM zinc acetate, 200 nM TF, 25 C, 1 h; high values mean tight binding
Settings: protein: recombinant; tags: N-terminal polyhistidine and DsRed monomer fusion (pET32a); chain copies: 2; label: CyDye5-dUTP incorporated in the synthesized complementary strand; 3' TTTTT single-stranded linker to array surface; dsDNA, one strand shown
In short: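 The binding signal is fluorescence intensity per feature, in arbitrary units, read on an Axon 4000B scanner. Polyhistidine- and DsRed-tagged transcription factors (N-terminal fusions) from E. coli BL21-CodonPlus were purified on Ni–NTA and applied at 200 nM for 1 h at 25 °C to a double-stranded, BSA-blocked custom Agilent array in buffer with 50 µM zinc acetate.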

Sequence	binding signal
CTCTCTCTCTCTCTCTCTCTAGCTTCCACCTCCTGATCCACGGAGTCACCTAGTGCAG	3370 fluorescence intensity (a.u.)
GCACCGGATGTCGTCACATGGACTAGCCTTGTCTCTGGCTCGGAGTCACCTAGTGCAG	3910 fluorescence intensity (a.u.)
ACCGGCGTGTCGTCGACTCATGGCTTTTGACTGATTTTGGCGGAGTCACCTAGTGCAG	5480 fluorescence intensity (a.u.)
AGAGCACGAAGTCATGTGTTTTGCTCCACTCCACGTCGTCCGGAGTCACCTAGTGCAG	6760 fluorescence intensity (a.u.)
CCAGGTCTTCTAGCACCAACATGGTAGGAGTAAACAAACACGGAGTCACCTAGTGCAG	4770 fluorescence intensity (a.u.)
TGCTGTGCAGGTTGCTCACATGTCACCTTCCGCTGTCATTCGGAGTCACCTAGTGCAG	6090 fluorescence intensity (a.u.)
GCTGCCAAATTGCCAATGGAGGCGGCTAGCCGGTACCTAACGGAGTCACCTAGTGCAG	3900 fluorescence intensity (a.u.)
TATATTTAATACTTCAAATACGTGTCCGTATATCCGATGTCGGAGTCACCTAGTGCAG	7090 fluorescence intensity (a.u.)
CCTCACCACACGCGCCGTCTCCTCGATCACCACACGCGCACGGAGTCACCTAGTGCAG	21300 fluorescence intensity (a.u.)
GATTTTGCGCGCCCGCATCGCACTCGCAGCAGCAGCGCCTCGGAGTCACCTAGTGCAG	3740 fluorescence intensity (a.u.)
TCTGATTATGACTCGATTCAATTAGCAGCAACGACTAATGCGGAGTCACCTAGTGCAG	4290 fluorescence intensity (a.u.)
TCCAGAGAATTCGCATGCTGGCCGTGTACGTACGTGGCGCCGGAGTCACCTAGTGCAG	11100 fluorescence intensity (a.u.)
TTGGTTGACGTGGCGCCTACGTTGCTCATTTAACTCGGTCCGGAGTCACCTAGTGCAG	30700 fluorescence intensity (a.u.)
CCTACCATCACATTCAGAGTTTGCATCCAAAATCCAGATGCGGAGTCACCTAGTGCAG	28500 fluorescence intensity (a.u.)
GAATTGTCTGCAAATTTGCAGCATCCCGTCATTTCCAAATCGGAGTCACCTAGTGCAG	3250 fluorescence intensity (a.u.)
CCTCCTCCTTCTCCGGCCACGGCGGCCGGCATTAGAAGCACGGAGTCACCTAGTGCAG	3520 fluorescence intensity (a.u.)
AAGAGAAATATCTGGTTGCTCCAGCTTGGCATCGTTGACCCGGAGTCACCTAGTGCAG	3870 fluorescence intensity (a.u.)
CCCTGTTCGTCGCCCGCCATGCCAGGGCGTGACATCACGTCGGAGTCACCTAGTGCAG	4110 fluorescence intensity (a.u.)
CCTCCGTCTCATAAAATACCAACCTAGTACTGGATGTGATCGGAGTCACCTAGTGCAG	3810 fluorescence intensity (a.u.)
GGGCCCCACTAACTGACTAAGCAAGTCAACGCTCTTTAAACGGAGTCACCTAGTGCAG	3470 fluorescence intensity (a.u.)
TGCAGTAGTGCTGACGTTCTTGTGTTAATGTGTTGGTTTTCGGAGTCACCTAGTGCAG	4430 fluorescence intensity (a.u.)

Two entries from above, reformatted.
Sequence,binding signal
GATTTTGCGCGCCCGCATCGCACTCGCAGCAGCAGCGCCTCGGAGTCACCTAGTGCAG,3740 fluorescence intensity (a.u.)
TCTGATTATGACTCGATTCAATTAGCAGCAACGACTAATGCGGAGTCACCTAGTGCAG,4290 fluorescence intensity (a.u.)

Looked up above:
Entry of GATTTTGCGCGCCCGCATCGCACTCGCAGCAGCAGCGCCTCGGAGTCACCTAGTGCAG under binding signal: 3740 fluorescence intensity (a.u.)
Entry of CCTCCGTCTCATAAAATACCAACCTAGTACTGGATGTGATCGGAGTCACCTAGTGCAG under binding signal: 3810 fluorescence intensity (a.u.)

Following part.

Sequence	binding signal
TTGCAAGCAGGGCTTTTCTGCCTACAGAGCTACTACGTGTCGGAGTCACCTAGTGCAG	3780 fluorescence intensity (a.u.)
CTGGAGTCTGCCTGAAGTAATCTCATGATCTCATCCCCTCCGGAGTCACCTAGTGCAG	4710 fluorescence intensity (a.u.)
TGTGCAGCACGCAGAGACAGAGGGCACGTGCCTTGGCTGCCGGAGTCACCTAGTGCAG	3280 fluorescence intensity (a.u.)
CGACGATGTCGACACCCGGCCCCACGTCGACGCCGTCTTCCGGAGTCACCTAGTGCAG	6120 fluorescence intensity (a.u.)
GAGTCTTGATAAGTGCACCCATCTCATCTCATCTCCTACTCGGAGTCACCTAGTGCAG	3410 fluorescence intensity (a.u.)
AATTTGGAACTTTCATAGTGATGTCATCCATGGCTTTAACCGGAGTCACCTAGTGCAG	9690 fluorescence intensity (a.u.)
TCACCATCCTCTTCATCGTCAGCAATCTTGACAACCGTACCGGAGTCACCTAGTGCAG	5860 fluorescence intensity (a.u.)
TGCTGTCCCGCCGCTGGCGCCACGTCTGGAAATGGGTGTCCGGAGTCACCTAGTGCAG	5840 fluorescence intensity (a.u.)
CACCATGGCCATAAGACGATGAGCTGAGAGAGAGAGAGAGCGGAGTCACCTAGTGCAG	27900 fluorescence intensity (a.u.)
AAATCAGGAGCCTCTGCCATTGGTTTGTGAAGCTACATCGCGGAGTCACCTAGTGCAG	65500 fluorescence intensity (a.u.)
AACCAGTTATAACAAATAGAAAATTATTTGCTTAATGTGCCGGAGTCACCTAGTGCAG	14700 fluorescence intensity (a.u.)
TTCTGCTGGATGCAAAGGAGAACGTGTAGACATGTACTACCGGAGTCACCTAGTGCAG	3270 fluorescence intensity (a.u.)
ATTACATAAGTTAGCAAGCAAGCATGTGCCAAGTCATTCCCGGAGTCACCTAGTGCAG	5140 fluorescence intensity (a.u.)
GCCCACGCAGCAGCAGCTACCGTGGCGGCTGCGACCAGCGCGGAGTCACCTAGTGCAG	3250 fluorescence intensity (a.u.)
AAGGAGGAGTTGGCCCCTCCAATCCTACGGGCCAAATCATCGGAGTCACCTAGTGCAG	3930 fluorescence intensity (a.u.)
CATACATGTAGCATGAAATTAGGTGACGTTTCACTTGGATCGGAGTCACCTAGTGCAG	4140 fluorescence intensity (a.u.)
AACGCCTCACCTTAGACGTGGCAACCTTAGTCACTCAAACCGGAGTCACCTAGTGCAG	4870 fluorescence intensity (a.u.)
ATGTAATATTTTAGGATGATCATTAGCGTGAGTCACGCTGCGGAGTCACCTAGTGCAG	7480 fluorescence intensity (a.u.)
ATGAATGCCGTTCTTGCTTTATCCAGTACATGTAAACATTCGGAGTCACCTAGTGCAG	3380 fluorescence intensity (a.u.)
GGGCCCACGCCCGCACGTGCCAGTGTTACTCCACCTGTCACGGAGTCACCTAGTGCAG	3150 fluorescence intensity (a.u.)
TGGCGGCGTGGAGCCGCGAGGGCGGTGGCGGCGGGGAGTTCGGAGTCACCTAGTGCAG	3380 fluorescence intensity (a.u.)

Source: PMC7819943, “Rice protein-binding microarrays: a tool to detect cis-acting elements near promoter regions in rice”
